# Experimental data taken from US20240407364A1, “METHODS OF WEED CONTROL” (Weedout Ltd., priority 2021, published 2024).
# At least one compound was matched to its structure with a doubt left. Some results were stated once for a whole list of compounds, not compound by compound.
# Experiments:
# Conyza bonariensis = test: Exp 401: clethodim on Conyza bonariensis; assay type: in vivo; conditions: Select Super 7 ml/L
# A. palmeri male plants [1] = test: Exp 275: pollen weight of male plants after male sterilant agents; assay type: in vivo, Amaranthus palmeri
# Method: The experiment was conducted during May-June 2021 in a net house in Rehovot, Israel. A. palmeri plants were sown in the net house soil and were grown for over a month before the experiment started. A. palmeri plants were divided into 6 groups of 10 plants, 60 male plants in total.
# The plants were mature and produced pollen when the experiment started. The pollen had been collected daily with a vacuum cleaner. The vacuum cleaner had been mounted with a replaceable filter located ahead of the dust container, thus catching the pollen before it enters the container and improving its collection. Pollen was collected for 5 days before the treatment and was continued for 2 weeks afterwards.
# The experiment tested 5 male sterilant agents: (I) Silicon oil 2 cST; (II) 2% Paraffin oil (Life—Superpharm) in Silicon oil 2 c/st; (III) 10% Paraffin oil (Life—Superpharm) in Silicon oil 2 cST; (IV) Clethodim (Select Super™), same as in Example 1; (V) Pyrithiobac, at 1/10 the concentration used in experiment II. Another group of plants was not treated at all (Blank).
# The treatments were applied using a hand-held sprayer. The solutions were sprayed on top of the plants.
# [2] = tested on: Amaranthus tuberculatus male plants; test: Exp 401: Amaranthus tuberculatus pollen production; assay type: in vivo; conditions: Select Super 7 ml/L, visual examination
# Method: (§1) The goal of this experiment was to examine if ACCase inhibitors can function as a sterilant on other broadleaf families.
# (§2) The experiment was conducted during April-June 2022 at the test farm of the Faculty of Agriculture in Rehovot, Israel. The different broad leaf species (Table 5) were sown in germination trays. 3-4 weeks after the seedling had emerged, they were transplanted in 4 L pots with potting soil mixture. Amaranthus tuberculatus female plants were separated from male plants and grown outside in a location isolated from air borne pollen. Upon maturation, 10 plants from each species, except for A. tuberculatus females, were selected and divided into 2 groups (control and treatment). In A. tuberculatus, 8 female plants were used for the testing.
# (§3) All the treated plants were sprayed with clethodim (Select Super™, Arysta Lifescience) in 7 ml/L rate while the control group was treated with tap water. […]
# (§4) Four, 7 14 and 21 days after treatment, the plants were visually examined carefully to identify possible sterilant effects such as reduction in pollen production, growth delay, damaged flowers, loss of flowers, loss of pods and phytotoxicity. These effects were measured or evaluated and recorded. The average values of each parameter were calculated both for the treated and for the control groups and a statistical analysis was conducted.
# A. palmeri male plants [3] = test: Exp 254: pollen production of male plants after spraying male sterilant agents; assay type: in vivo, Amaranthus palmeri
# Method: The experiment was conducted during April-May 2021 in a net house in Rehovot, Israel. A. palmeri plants were sown in germinating trays. Three weeks after the seedlings had emerged, the male plants were transplanted in the net house. A. palmeri plants were divided into 10 groups of 10 plants, 100 male plants in total. In addition, 30 females, 3 females per treatment, were transplanted in 4 L pots with a potting soil mixture and were grown in a different net house, isolated from male pollen.
# Once the male plants had all started to flower, the pollen had been collected daily with a vacuum cleaner. The vacuum cleaner had been mounted with a replaceable filter located ahead of the dust container, thus catching the pollen before it enters the container and improving its collection. A new filter was used for each group, and the filters were kept in a 50 ml tube before the pollen was extracted and weighed in the lab. […]
# A. palmeri female plants [4] = test: Exp 343 part 1: commercial clethodim formulations, seed set; assay type: in vivo, Amaranthus palmeri; conditions: rate of 0.7 ml/L (Select Super 0.81 gr/L, Arrow Super 0.84 gr/L clethodim); pollination 4, 7, 14 and 21 days after treatment; vs tap water
# A. palmeri female plants [5] = test: Exp 289: seed set of female plants pollinated 1.5 hours to 10 days after Clethodim; assay type: in vivo, Amaranthus palmeri; conditions: Select Super 3.5 ml/l; pollination 1.5 hour to 10 days after treatment; vs tap water
# Method: The goal of this experiment was to examine the effects of Clethodim (Select Super™) on seed set in A. palmeri female plants. The results of Example 1 provided an initial indication on a reduction in seed set one week after an application of Clethodim. The following experiment tested the effect of Clethodim on seed set when pollination occurs from 1.5 hours to 10 days after treatment with Clethodim.
# The experiment was conducted during June-July 2021 at the tests farm of the Tests farm of the Faculty of Agriculture, Rehovot, Israel, Israel. A. palmeri plants were sown in germinating trays. Three weeks after the seedlings had emerged, they were transplanted to 4 L pots with a potting soil mixture. The female plants were separated from the male plants and were grown outside in a location isolated from air-borne pollen. Upon maturation, 6 female plants were selected and divided into 2 groups of 3 plants.
# Spraying of the entire plants with either tap water or Select Super™ (3.5 ml/1) using a hand-held 1.5 L sprayer, with enough distance between the groups to prevent contamination.
# To test the effect of Clethodim on seed set, the inflorescence of the plants were artificially pollinated. On each time interval, a paper tube with 10 mg of fresh non-irradiated pollen was carefully placed on an inflorescence, leaving it for 20 minutes before removing. […]
# A. palmeri female plants [6] = test: Exp 455: effect of clethodim application timing on seed formation; assay type: in vivo, Amaranthus palmeri; conditions: pollination 40 DAP
# A. palmeri female plants [7] = test: EXP420: female sterility effect of ACCase inhibitors of the FOP family, normal seed weight; assay type: in vivo, Amaranthus palmeri; conditions: 0.7% rate; pollination 7 and 14 days after treatment; vs untreated control
# A. palmeri female plants [8] = test: Exp 313: dose response of Clethodim (Select Super) on seed set; assay type: in vivo, Amaranthus palmeri; conditions: for number of seeds produced per spike: both low rate (3.5 ml/l) and high rate (7 ml/l), from the first time point (1.5 hour), stronger in the high dose; for total seed number: pollination 22 days after treatment
# Method: The goal of this experiment was to examine dose response of Clethodim (Select Super™) treatment and validate the results of Example 3.
# The experiment was conducted during September 2021 at the tests farm of the Faculty of Agriculture in Rehovot, Israel. A. palmeri plants were sown in germinating trays. 3 weeks after the seedlings had emerged, they were transplanted to 4 L pots with a potting soil mixture. The female plants were separated from the male plants and were grown outside in a location isolated from air-borne pollen. Upon maturation, 9 female plants were selected and divided into 3 groups of 3 plants.
# The experiment tested 2 rates of Select Super™ (Clethodim 120 gr/L-Arysta): (I) Low rate (3.5 ml/1), (II) High rate (7 ml/1). Another group of plants was treated with tap water (Control), [3.5 ml/L treatment=0.42 gr/L in active ingredient, 7 ml/L treatment=0.84 gr/L].
# Treatment procedure was conducted as follows: spraying of the entire plants with the different treatments using a hand-held 1.5 L sprayer, with enough distance between the groups to prevent contamination.
# To test the effect of Clethodim on seed set, artificial pollinations were conducted in several time intervals following clethodim treatment. On each time interval, 2 inflorescences on each plant were artificially pollinated by placing a paper tube with 10 mg of fresh non-irradiated pollen on the inflorescence and leaving it for 20 minutes before removing. On each time interval a total of 6 inflorescences from 3 female plants were pollinated. The intervals were as follows: 1.5-hour, 1 day, 2 days, 4 days, 7 days, 10 days and 22 days after treatment.
# A. palmeri male plants [9] = test: Exp 321: male sterility agents screening #2, pollen production; assay type: in vivo, Amaranthus palmeri; conditions: Select Super 3.5 ml/L and 7 ml/L; Arrow Super 7 ml/L; 10 male plants per treatment
# Method: The goal of this experiments was to repeat results with Select Super™ (Arysta Lifescience) and test an additional formulation of clethodim to act as a sterilant on A. palmeri male plants.
# The experiment was conducted during September-October 2022 in a net house in Rehovot, Israel. A. palmeri plants were sown in germinating trays, 3 weeks after the seedlings had emerged, the male plants were transplanted in the net house. A. palmeri plants were divided into 4 groups of 10 plants each, 40 male plants in total.
# Once the male plants had all started to flower, the pollen had been collected daily with a vacuum cleaner in the same manner as described in Example 1. Pollen was collected in specific days following the applications up to 12 DAA.
# The experiment tested 2 male sterilant agents: (1) Clethodim (Select Super™, Arysta Lifescience) low rate: 3.5 ml/L and high rate: 7 ml/L, (2) Clethodim (Arrow Super™, Adama) 7 ml/L. Another group of plants were not treated at all and served as a control.
# Treatment procedure was conducted as follows: spraying of the entire plants using a hand-held 1.5 L sprayer for a full cover of all plant parts. Each group of plants was sprayed with the tested treatment while keeping enough distance between the groups to prevent contamination.
# Solanum nigrum = test: Exp 401: clethodim on Solanum nigrum; assay type: in vivo; conditions: Select Super 7 ml/L; 7 DAA
# Method: as §1, §2, §3, §4
SMILES,effect on inflorescences and flower formation (Conyza bonariensis),"average number of fertile flowers per plant (Conyza bonariensis; Twenty one DAA, control 11.6)",pollen weight relative to the blank (A. palmeri male plants [1]; 6 days after treatment),recovery in pollen production (A. palmeri male plants [1]; after the 8 days of reduction),pollen shedding of treated spikes [2],anther phenotype ([2]; FIG. 18),pollen weight after treatment relative to the lowest amount collected before treatment (A. palmeri male plants [3]; Clethodim 3.5 ml/L),"pollen production (collected pollen weight) (A. palmeri male plants [3]; male plants sprayed on top at flowering, Clethodim (Select Super) 3.5 ml/L, 10% Paraffin in 2 cST pure, 20 ml/plant, vs blank)",total seed number per spike (A. palmeri female plants [4]),total seed number per inflorescence (A. palmeri female plants [5]),"average normal seed weight per spike (A. palmeri female plants [6]; Select Super 10 ml/L applied at 21 DAP (induction of flowering), 26 DAP (p-value 0.034), 33 DAP (p-value 0.03))","normal seed production (normal seed weight per spike) (A. palmeri female plants [6]; Select Super 10 ml/L applied at seedling and young vegetative stage (7 and 14 DAP), vs untreated control)",duration of reduction in the average normal seed weight per spike (A. palmeri female plants [7]),"abortion rate (aborted seeds/total seeds) (A. palmeri female plants [8]; all time points averaged, low and high rate)",number of seeds produced per spike (A. palmeri female plants [8]),number of seeds produced per spike (A. palmeri female plants [8]; listed as Clethodim (Select Super™)),total seed number (A. palmeri female plants [8]; high rate 7 ml/l),total seed number (A. palmeri female plants [8]; low rate 3.5 ml/l),pollen production (A. palmeri male plants [9]),observed effect on inflorescences and fruit (Solanum nigrum)
CCSC(C)CC1CC(=O)C(/C(CC)=N/OC/C=C/Cl)=C(O)C1 (stereo not drawn) [Clethodim],damaged existing inflorescences and delayed formation of new flowers,no fertile flowers at all,fifth of the blank pollen weight,leveled back to the blank weight,did not produce wind-dispersed pollen grains at all,"joint anther instead of a regular, separated, anther",below detection levels,major reduction in pollen production,significant reduction in total seed number at all the tested time points,remained low till the end of the experiment,reduction of the average normal seed weight,did not affect normal seed production,at least 14 days,dose dependent increase in abortion rate,reduced the number of seed produced,strong reduction in the number of seeds produced,remained low,returned almost to the same level as the control,serious reduction in pollen production,inflorescences and young fruit drop
"CCCCOC(=O)[C@@H](C)Oc1ccc(Oc2ccc(C(F)(F)F)cn2)cc1 [Fluazifop-p-botyl (Deganol, Syngenta), Fluazifop-p-botyl]",–,–,–,–,–,–,–,–,–,–,–,–,at least 14 days,–,–,–,–,–,–,–
